For at least one compound, name, drawing or mass did not settle the structure.
Tested on: LPS-driven TNFα level in primary human PBMCs
Type: cell-based
Conditions: 5% supernatant; dexamethasone 10 uM; across 6 primary human PBMCs; FIG. 2B

SMILES: C[C@@H]1C[C@H]2[C@@H]3CCC4=CC(=O)C=C[C@]4(C)[C@@]3(F)[C@@H](O)C[C@]2(C)[C@@]1(O)C(=O)CO [dexamethasone]
- LPS-driven TNFα level versus PYG bacterial media control and dexamethasone: statistically differentiated from the PYG negative control

From patent US20230256033A1, “PHYSIOLOGICALLY ACCEPTABLE COMPOSITIONS CONTAINING MICROORGANISMS OR MICROBIAL PRODUCTS” (FLAGSHIP PIONEERING INNOVATIONS VI, LLC, priority 2020, published 2023)
